Test results reported in PMC5509727.

Tests used:
Test in all cases: co-IP; IP-Western of IFT88 with DGKδ deletion constructs (Fig. 2G); precipitating antibody and cell line not told for this panel
[1] = molecular target: DGKδ deletion construct: C-terminal (human)
[2] = molecular target: DGKδ deletion construct: N-terminal (human)
[3] = molecular target: DGKδ deletion construct: catalytic domain (human)

B1: FLAG-IFT88 (pCMV-IFT88-3XFLAG) (protein, UniProt Q61371 1-824)
chain: MENVHLAPETDEDDLYSGFNDYNPAYDTEELENDTGFQQAVRTSHGRRPPVTAKIPSTAVSRPIATGYGSKTSLTSSMGRPMTGTIQDGVARPMTAVRAAGFSKAALRGSAFDPLGQSRGPAPPLEAKNEDSPEEKIRQLEKKVNELVEESCIANSCGDLKLALEKAKDAGRKERVLVRQREQVTSPENINLDLTYSVLFNLASQYSANEMYAEALNTYQVIVKNKMFSNAGRLKVNMGNIYLKQRNYSKAIKFYRMALDQIPSVHKEMRIKIMQNIGITFIKTGQYSDAINSFEHIMSMAPSLKAGFNLILSCFAIGDREKMKKAFQKLIAVPLEIDEDDKYISPSDDPHTNLLIEAIKNDHLRQMERERKAMAEKYIMTAAKLIAPVIEASFAVGYNWCVEVVKASQYVELANDLEINKAITYLRQKDFNQAVDTLKMFEKKDSRVKSAAATNLSFLYYLENEFAQASSYADLAVNSDRYNPSALTNKGNTVFANGDYEKAAEFYKEALRNDSSCTEALYNIGLTYKKLNRLDEALDSFLKLHAILRNSAQVLCQIANIYELMEDPNQAIEWLMQLISVVPTDSQALSKLGELYDSEGDKSQAFQYYYESYRYFPSNIEVIEWLGAYYIDTQFCEKAIQYFERASLIQPTQVKWQLMVASCFRRSGNYQKALDTYKEIHRKFPENVECLRFLVRLCTDIGLKEVQEYATKLKRLEKMKEMREQRIKSGRDSSGGSRSKREGSAGSDSGQNNSASSKSERLSAKLRALPGTDEPYESSGNKEIDASYVDPLGPQIERPKTAAKKRIDEDDFADEELGDDLLPE
Q: Which binding [1] does the source give for B1 here?
A: binds

Q: What about the binding [2] of the same binder?
A: no binding

Q: And the binding [3]?
A: binds

These are yes or no findings as the source states them, for the method shown. In cells and extracts the contact can be indirect. For part of these data: Binding can be weak; no strength is given. Where a sequence is shown, tags or fusion partners need not be part of it.
